For at least one compound, name, drawing or mass did not settle the structure.
Tested on: CLL cells
Assay: CLL cell viability, flow cytometry with DiOC6 and TO-PRO3
Format: cell-based, human
Details: 24 hours, DiOC6 and TO-PRO3 staining
Procedure: FIG. 1A is a bar graph showing the results of an experiment in which CLL cells were treated with the indicated drugs and concentrations and incubated for 24 hours. For the BCR stimulation, cells were supplemented with IL-4 and αIgM. […] Bars represent the mean±SEM. FIG. 1B is a bar graph showing the results of an experiment in which CLL cells were labeled with CellTrace Violet and cultured for 5 days on 3T40 supplemented with IL-21 or on 3T3 in combination with CpG, IL-2, IL-15, and IL-21 in combination with 10 μM MALTi. Proliferation was measured using flow cytometry based on CellTrace Violet signal (n=8). […] Afterwards, culture supernatant was collected and IL-6 (n=14) (FIG. 1C), IL-10 (n=13) (FIG. 1D), and TNFα (n=14) (FIG. 1E) levels were measured using commercial ELISA kits. […] Protein lysates were probed for p-IκBα, Bcl-XL, and actin as loading control.

CC#CC(=O)N1CCC[C@H]1c1nc(-c2ccc(C(=O)Nc3ccccn3)cc2)c2c(N)nccn12 [acalabrutinib]
direct cell death in CLL cells (viability): did not induce direct cell death

Source: US11872220B2, “Methods and compositions for treating B-cell malignancies” (Janssen Pharmaceutica NV, priority 2021, dated 2024)
